In PMC6177467:
No constants are given. Whether binding was seen depends on the method and setting. For some of these results: Binding seen in cells or lysates may run through a third protein. Some results given as binding are weak or reduced against the parent protein; the word gives no strength.

Amino acid sequences for entries named in this document (tags omitted).
UniProt P38398: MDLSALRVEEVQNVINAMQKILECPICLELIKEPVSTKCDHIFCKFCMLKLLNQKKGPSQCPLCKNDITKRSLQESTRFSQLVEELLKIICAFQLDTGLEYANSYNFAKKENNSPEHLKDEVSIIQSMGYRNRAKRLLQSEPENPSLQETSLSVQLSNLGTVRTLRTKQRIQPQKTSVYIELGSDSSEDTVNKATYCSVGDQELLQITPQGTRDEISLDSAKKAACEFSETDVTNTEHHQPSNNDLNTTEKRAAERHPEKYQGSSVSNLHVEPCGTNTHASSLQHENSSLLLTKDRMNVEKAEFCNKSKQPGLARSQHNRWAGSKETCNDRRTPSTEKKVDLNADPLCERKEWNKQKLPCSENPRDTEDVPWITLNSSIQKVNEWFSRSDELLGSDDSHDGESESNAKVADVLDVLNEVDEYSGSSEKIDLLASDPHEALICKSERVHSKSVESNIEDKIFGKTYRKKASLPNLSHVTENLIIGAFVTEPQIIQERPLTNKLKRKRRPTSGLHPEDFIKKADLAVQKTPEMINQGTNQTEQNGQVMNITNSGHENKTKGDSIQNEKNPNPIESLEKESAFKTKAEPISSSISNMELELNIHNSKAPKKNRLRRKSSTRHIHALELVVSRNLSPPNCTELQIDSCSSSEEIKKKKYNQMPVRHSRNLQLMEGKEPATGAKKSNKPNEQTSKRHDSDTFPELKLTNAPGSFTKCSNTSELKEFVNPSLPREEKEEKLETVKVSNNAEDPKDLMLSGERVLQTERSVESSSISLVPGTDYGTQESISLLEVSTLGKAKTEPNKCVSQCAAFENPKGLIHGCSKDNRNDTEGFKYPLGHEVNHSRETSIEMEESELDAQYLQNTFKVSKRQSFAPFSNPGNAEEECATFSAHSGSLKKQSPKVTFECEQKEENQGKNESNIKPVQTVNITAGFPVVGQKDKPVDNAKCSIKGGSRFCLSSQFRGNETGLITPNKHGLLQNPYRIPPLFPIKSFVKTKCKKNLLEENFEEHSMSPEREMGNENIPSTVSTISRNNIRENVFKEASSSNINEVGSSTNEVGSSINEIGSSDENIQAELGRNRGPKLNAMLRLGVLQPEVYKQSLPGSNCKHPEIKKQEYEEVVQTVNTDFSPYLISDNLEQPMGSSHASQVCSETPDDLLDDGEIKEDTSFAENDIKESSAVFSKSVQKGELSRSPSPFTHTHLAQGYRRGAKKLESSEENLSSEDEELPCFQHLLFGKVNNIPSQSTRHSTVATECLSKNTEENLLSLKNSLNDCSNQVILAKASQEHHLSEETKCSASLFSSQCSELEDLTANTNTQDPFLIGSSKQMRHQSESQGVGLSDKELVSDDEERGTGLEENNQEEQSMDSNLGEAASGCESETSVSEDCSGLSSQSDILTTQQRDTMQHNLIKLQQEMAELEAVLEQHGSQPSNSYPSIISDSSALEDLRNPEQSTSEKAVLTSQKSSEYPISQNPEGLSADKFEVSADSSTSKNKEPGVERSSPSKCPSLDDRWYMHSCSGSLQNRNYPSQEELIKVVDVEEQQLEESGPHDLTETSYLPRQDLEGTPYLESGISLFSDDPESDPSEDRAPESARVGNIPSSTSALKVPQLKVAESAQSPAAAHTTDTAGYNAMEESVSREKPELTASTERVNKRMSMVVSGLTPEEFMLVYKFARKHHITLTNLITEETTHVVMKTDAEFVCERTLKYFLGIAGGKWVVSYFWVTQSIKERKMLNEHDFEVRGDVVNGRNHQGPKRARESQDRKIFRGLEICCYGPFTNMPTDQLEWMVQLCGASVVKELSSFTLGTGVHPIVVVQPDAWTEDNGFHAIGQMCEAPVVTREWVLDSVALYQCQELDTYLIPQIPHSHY

How the values were obtained:
[1] = biological target: T1, P73 (human (endogenous in ARP)) (UniProt O15350); experiment: co-IP; endogenous proteins; nuclear lysates of ARP cells, control (DMSO) or treated with 5 µM API3 for 24 h, immunoprecipitated with anti-P73 antibody or IgG (control); Western blot probed with anti-APEX1 antibody
T1 sequence: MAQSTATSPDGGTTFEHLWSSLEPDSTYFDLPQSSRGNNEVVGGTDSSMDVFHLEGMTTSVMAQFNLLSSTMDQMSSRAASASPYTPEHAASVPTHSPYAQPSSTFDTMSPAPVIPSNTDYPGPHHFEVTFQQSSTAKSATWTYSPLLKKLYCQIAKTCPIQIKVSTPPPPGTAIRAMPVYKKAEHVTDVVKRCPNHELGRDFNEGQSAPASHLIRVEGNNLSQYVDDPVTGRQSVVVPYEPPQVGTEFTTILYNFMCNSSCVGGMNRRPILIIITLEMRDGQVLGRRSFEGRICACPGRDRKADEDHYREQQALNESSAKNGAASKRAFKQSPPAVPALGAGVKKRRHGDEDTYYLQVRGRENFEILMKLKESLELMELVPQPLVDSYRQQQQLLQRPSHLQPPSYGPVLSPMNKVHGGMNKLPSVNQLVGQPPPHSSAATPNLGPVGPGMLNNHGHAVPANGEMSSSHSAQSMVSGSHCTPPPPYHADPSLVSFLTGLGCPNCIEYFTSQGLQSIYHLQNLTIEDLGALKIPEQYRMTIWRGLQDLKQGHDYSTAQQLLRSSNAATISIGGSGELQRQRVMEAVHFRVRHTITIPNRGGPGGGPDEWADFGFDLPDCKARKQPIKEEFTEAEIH

[2] = biological target: BRCA1 (human (endogenous in MM cells)) (UniProt P38398); experiment: peptide or protein array; antibody array: cell cycle antibody array (Hypromatrix, 60 antibodies) and/or custom array (40 antibodies) immobilised on nitrocellulose, incubated with MM cell lysate, then with HRP-conjugated anti-APEX1 or anti-APEX2 antibody; partners identified by their address on the array
[3] = biological target: P53 (human (endogenous in MM cells)) (UniProt P04637); experiment: as above
[4] = biological target: T1, P73 (human (endogenous in ARP)); experiment: as above

Measured: binding

APEX1 (from UniProt P27695 1-318) (enzyme)
binds: all assays above
